{
  "source": "patent US20100113366A1",
  "about": "“USE OF PROLINE-RICH PEPTIDE DERIVED FROM HYPOTHALAMUS FOR THE MANUFACTURE OF A MEDICAMENT FOR THE TREATMENT AND/OR PROPHYLAXIS OF CATTLE LEUCOSIS” (priority 2005, published 2010)",
  "test_system": "cows with leucosis",
  "assay": "hematological and cytomorphological blood indices of cows with leucosis after PRP-1 administration in vivo",
  "description": "The cows with leucosis were administered with the PRP-1 solution in concentration 1.57×10^−4 g in 1 ml in a dose of 4×10^−3 ml/kg live weight of animal twice in 48 h.\nThe blood samples were taken from the jugular vain of animal into the test tubes with anti-coagulant Trilon-B before administration, in 48 h after 1st and 2nd administrations, as well as in 33 days after the 2nd administration. The blood hematomorphological and cytomorphological studies were carried out according to the available methods of veterinary hematology.",
  "key": {"[1]": {"conditions": "33 days after PRP-1 administration"}},
  "note": "Part of at least one peptide drawing is inferred or uncertain, most often the ends. Where no end group is shown, it is not given here.",
  "data": [
    {"sequence": "AGAPEPAEPAQPGVY [PRP-1, Ala-Gly-Ala-Pro-Glu-Pro-Ala-Glu-Pro-Ala-Gln-Pro-Gly-Val-Tyr]", "values": [
      {"measurement": "decrease of absolute content of leucocytes", "setting": "48 h after 1st administration", "result": 34, "unit": "%"},
      {"measurement": "decrease of relative content of leucocytes", "setting": "48 h after 1st administration", "result": 14.6, "unit": "%"},
      {"measurement": "decrease of the relative content of large lymphocytes with weak resistance", "setting": "48 h after 1st administration", "result": 11, "unit": "%"},
      {"measurement": "decrease of the relative content of medium lymphocytes with weak resistance", "setting": "48 h after 1st administration", "result": 23, "unit": "%"},
      {"measurement": "relative content of small lymphocytes with strong resistance (increase up to)", "setting": "48 h after 1st administration", "result": 60, "unit": "%"},
      {"measurement": "decrease of leucocytes in the blood", "setting": "48 h after 1st administration, p<0.05", "result": 24, "unit": "%"},
      {"measurement": "structurally atypical and hardly classifying lymphocytes in the blood smears", "setting": "48 h after 1st administration, relative content 2% before the administration", "result": "could not find any"},
      {"measurement": "large and partially medium lymphocytes with weak resistance, prolymphocytes, lymphoblasts and malignant cells in blood smears", "setting": "48 h after 1st and 2nd administration, microscopic analysis", "result": "structurally destroyed"},
      {"measurement": "erythrocytes content", "setting": "48 h after 1st and 2nd administration, p<0.01", "result": "significant increase"},
      {"measurement": "hemoglobin", "setting": "48 h after 1st and 2nd administration, p<0.02", "result": "significant increase"},
      {"measurement": "increase of the content of segmentonuclear neutrophils", "setting": "48 h after 1st and 2nd administrations, p<0.001", "result": "3-4 times"},
      {"measurement": "decrease of absolute content of leucocytes", "setting": "48 h after 2nd administration", "result": 43.4, "unit": "%"},
      {"measurement": "decrease of relative content of leucocytes", "setting": "48 h after 2nd administration", "result": 21.3, "unit": "%"},
      {"measurement": "decrease of the relative content of large lymphocytes with weak resistance", "setting": "48 h after 2nd administration", "result": 10, "unit": "%"},
      {"measurement": "decrease of the relative content of medium lymphocytes with weak resistance", "setting": "48 h after 2nd administration", "result": 30, "unit": "%"},
      {"measurement": "relative content of small lymphocytes with strong resistance (increase up to)", "setting": "48 h after 2nd administration", "result": 59, "unit": "%"},
      {"measurement": "decrease of leucocytes in the blood", "setting": "48 h after 2nd administration, p<0.01", "result": 37, "unit": "%"},
      {"measurement": "regulation process of hematological and cytomorphological indices", "setting": "33 days after 2nd administration, p<0.01-p<0.001 versus before administration", "result": "is continuing"},
      {"measurement": "cytomorphological indices in the blood smears", "setting": "[1]", "result": "almost correspond to the indices of healthy cows"},
      {"measurement": "malignant cells in the blood smears", "setting": "[1]", "result": "complete absence"}
    ]}
  ]
}
